PubChem BioAssay AID504774 – Drosophila RNAi Screening Center – 2011
The deposit covers about 23,000 reagents; this is an unselected part of those that have a named target and a result. 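Values are quantile-normalised luminescence on an arbitrary scale; higher means more cells surviving MMS.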 Further read-outs or replicates are left out here. Reagent sequences are not shown.

- Test: 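Genes required for cells to withstand methyl methanesulphonate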 (primary screen)
- System: Drosophila Kc167 cells
- Knock-down reagent: long dsRNA against Drosophila genes, about 0.25 µg dsRNA per well
- Time to read-out: about 6 days: 3 days knock-down, then 3 days with or without MMS
- Conditions: methyl methanesulphonate 0.004% (w/v) for 3 days after knock-down
- Measurement: 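Viability in wells given MMS, read as ATP luminescence, normalised by quantiles plate by plate and averaged across replicates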
- Scale: mean viability with MMS and viability with MMS: higher = more surviving cells after MMS

CG8460 [DRSC03090] — mean viability with MMS: 3.77e6; viability with MMS, replicate 1: 4.28e6
elfless [DRSC02451] — mean viability with MMS: 3.51e6; viability with MMS, replicate 1: 4.09e6
CG8584 [DRSC07217] — mean viability with MMS: 3.49e6; viability with MMS, replicate 1: 3.93e6
CG4168 [DRSC01446] — mean viability with MMS: 3.47e6; viability with MMS, replicate 1: 3.97e6
CG4168 [DRSC01447] — mean viability with MMS: 3.42e6; viability with MMS, replicate 1: 3.89e6
CG4168 [DRSC01933] — mean viability with MMS: 3.58e6; viability with MMS, replicate 1: 4.05e6
CG4168 [DRSC21319] — mean viability with MMS: 3.52e6; viability with MMS, replicate 1: 3.88e6
CG4168 [DRSC22789] — mean viability with MMS: 3.41e6; viability with MMS, replicate 1: 3.94e6
Tsp42Ei [DRSC06189] — mean viability with MMS: 3.63e6; viability with MMS, replicate 1: 4.15e6
Nep1 [DRSC18388] — mean viability with MMS: 3.53e6; viability with MMS, replicate 1: 3.97e6
Nep1 [DRSC18389] — mean viability with MMS: 2.86e6; viability with MMS, replicate 1: 3.38e6

Continued; the last 3 above are carried over.
Tsp42Ei [DRSC06189] — mean viability with MMS: 3.63e6; viability with MMS, replicate 1: 4.15e6
Nep1 [DRSC18388] — mean viability with MMS: 3.53e6; viability with MMS, replicate 1: 3.97e6
Nep1 [DRSC18389] — mean viability with MMS: 2.86e6; viability with MMS, replicate 1: 3.38e6
CG13471 [DRSC10015] — mean viability with MMS: 3.53e6; viability with MMS, replicate 1: 4.05e6
CG9396 [DRSC16487] — mean viability with MMS: 3.76e6; viability with MMS, replicate 1: 4.17e6
CG30270 [DRSC22890] — mean viability with MMS: 3.45e6; viability with MMS, replicate 1: 3.98e6
GstZ2 [DRSC16479] — mean viability with MMS: 3.58e6; viability with MMS, replicate 1: 4.09e6
CG17267 [DRSC15207] — mean viability with MMS: 3.37e6; viability with MMS, replicate 1: 3.79e6
CrebA [DRSC11122] — mean viability with MMS: 3.56e6; viability with MMS, replicate 1: 3.95e6
Phae2 [DRSC02555] — mean viability with MMS: 3.75e6; viability with MMS, replicate 1: 4.14e6
lace [DRSC03564] — mean viability with MMS: 3.53e6; viability with MMS, replicate 1: 4.06e6
Fkbp39 [DRSC16667] — mean viability with MMS: 3.34e6; viability with MMS, replicate 1: 3.77e6
Sin3A [DRSC07552] — mean viability with MMS: 3.17e6; viability with MMS, replicate 1: 3.64e6
AGO3 [DRSC21386] — mean viability with MMS: 3.47e6; viability with MMS, replicate 1: 4.06e6
CG14756 [DRSC06491] — mean viability with MMS: 3.50e6; viability with MMS, replicate 1: 4.01e6
CG9084 [DRSC07335] — mean viability with MMS: 3.48e6; viability with MMS, replicate 1: 3.92e6
